# Assay results taken from publication PMC8758767.
# Construct, isoform or probe ends are uncertain for at least one entry. Where cells or extracts were used, other partners may take part. For some of these results: No signal at the amounts used counts as a negative. For some of these results: At least one verdict rests on a figure or table, not on a statement of the authors. Tags and fusion partners may be left off the protein sequences shown.
# Tests used:
# Nrf2 [1] = target: T1, Nrf2 (UniProt Q16236); assay: EMSA; details: 10 ug nuclear extract, 100,000 cpm 32P probe, 4% polyacrylamide gel; supershift with 2 ug antibody at 4 C for 2 h; salt and pH not given; protein in an extract; label: 5'-32P
# T1 sequence (looked up, limits assumed): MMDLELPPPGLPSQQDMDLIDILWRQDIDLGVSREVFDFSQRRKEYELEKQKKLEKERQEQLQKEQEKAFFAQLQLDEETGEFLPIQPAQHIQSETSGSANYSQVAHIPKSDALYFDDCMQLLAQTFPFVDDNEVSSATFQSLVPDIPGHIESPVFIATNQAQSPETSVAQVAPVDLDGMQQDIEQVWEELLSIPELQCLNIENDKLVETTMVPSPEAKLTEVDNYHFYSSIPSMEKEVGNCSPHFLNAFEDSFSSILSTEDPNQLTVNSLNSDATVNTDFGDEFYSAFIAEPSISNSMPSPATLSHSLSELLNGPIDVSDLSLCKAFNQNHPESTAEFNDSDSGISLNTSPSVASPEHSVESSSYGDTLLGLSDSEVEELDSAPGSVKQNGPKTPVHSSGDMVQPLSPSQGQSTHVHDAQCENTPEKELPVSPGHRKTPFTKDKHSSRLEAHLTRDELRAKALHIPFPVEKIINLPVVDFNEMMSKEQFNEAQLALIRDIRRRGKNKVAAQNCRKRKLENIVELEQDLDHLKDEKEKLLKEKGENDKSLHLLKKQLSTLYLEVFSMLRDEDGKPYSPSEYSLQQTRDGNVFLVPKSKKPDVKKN
# Nrf2 [2] = target: T1, Nrf2; assay: EMSA supershift; details: anti-Nrf2 antibody, self-competed by cold ARE1; 10 ug nuclear extract, 100,000 cpm 32P probe, 4% polyacrylamide gel; supershift with 2 ug antibody at 4 C for 2 h; salt and pH not given; protein in an extract; label: 5'-32P
Sequence,binding result (Nrf2 [1]),binding result (Nrf2 [2])
CTAGGCGTGAGAGATCAGCCTGTAATCACA (double strand) [HBXIP ARE1mut],no binding,
CTAGGCGTGGTGACTCAGCCTGTAATCACA (double strand) [HBXIP ARE1],,binds
GACTAAGCCATGATAGTGCCACTGCACTCC (double strand) [HBXIP ARE2],no binding,
GCAGTGAGCTGAGACGGCGCCACTGCACTC (double strand) [HBXIP ARE3],no binding,
